# Assay results: PubChem BioAssay AID540276 (National Center for Advancing Translational Sciences (NCATS), 2011)
# In all, about 300,000 compounds went through this assay and about 5,400 (1.8%) were called active. This list was built around the results that the source calls inconclusive (neither active nor inactive); the mix of calls is not that of the screen. The call rests on the fitted dose curve; tested in HEK293 cells. Potencies beside an inconclusive call are fits to weak or partial responses and may not hold up.
# Assay: qHTS for inhibitors of binding or entry into cells for Marburg Virus
# Conditions: Marburg virus pseudotyped entry inhibition, cell reporter; series mostly up to 37.8 µM
# Potency means the concentration at half of the fitted maximal effect.
row,Compound,Potency
1,CCn1c(-c2cc(-c3ccccc3)sc2N)n[nH]c1=S,"inconclusive: 10 µM [inhibitor, partial curve, poor fit]"
2,Nc1ccc(O)c2c(=O)cc(-c3ccccc3Cl)oc12,"inconclusive: 0.517 µM [activator, partial curve]"
3,CCn1cc(CN2CCCC(C(=O)Nc3cccc(-c4cc5ccccc5[nH]4)c3)C2)cn1 (stereo unspecified),"inconclusive: 35.5 µM [inhibitor, single point]"
4,Cc1cc(C)cc(-n2c(C)cc(C(=S)N3CCOCC3)c2C)c1,inactive
5,O=C(CCSc1ccc(Cl)cc1)NC1CCCCC1,"inconclusive: 15.8 µM [activator, single point]"
6,CN(C)Cc1ccccc1C(O)(c1ccccc1)c1ccccc1,"inconclusive: 22.4 µM [inhibitor, single point]"
7,CC(=O)c1cnc(Nc2nc(C)c3ccc(C)cc3n2)nc1C,inactive
8,Clc1ccc(OCc2noc(-c3ccsc3)n2)c(Cl)c1,"inconclusive: 1.78 µM [activator, partial curve, poor fit]"
9,COc1ccccc1NC(=O)CN1CCN(c2ccc(Cl)cc2)CC1,"inconclusive: 1.41 µM [inhibitor, partial curve, poor fit]"
10,Cc1ccc(C)c(NC(=S)NCc2ccc3[nH]c4c(c3c2)CCCC4)c1,"inconclusive: 32.6 µM [inhibitor, single point]"
11,CCNc1nc(NCC)n2c(SCC(=O)c3ccccc3Cl)nnc2n1,inactive
12,Cc1cnn(-c2cc(N/N=C/c3ccccc3)ncn2)c1,inactive
13,N#Cc1cc2c(nc1SCc1ccccc1)CCC2,inactive
14,O=C(CNc1cccc(S(=O)(=O)N2CCOCC2)c1)Nc1ccc(C(F)(F)F)cc1,"inconclusive: 5.01 µM [inhibitor, full curve]"
15,CC(C)Cn1c(-c2ccccc2)nc(=S)c2c1CCCC2,"inconclusive: 14.1 µM [activator, single point]"
16,C=C(CCN1C=C(C(=O)OCC)C(c2ccccc2)NC1=O)OC (stereo unspecified),"inconclusive: 0.335 µM [inhibitor, full curve, poor fit]"
17,COc1ccc(S(=O)(=O)N(C)CC(=O)N2CCCC2)cc1Cl,"inconclusive: 6.51 µM [inhibitor, partial curve, poor fit]"
18,CC1Cc2ccccc2N1C(=O)c1ccc(N2CCCC2)c([N+](=O)[O-])c1 (stereo unspecified),"inconclusive: 7.08 µM [inhibitor, partial curve, poor fit]"
19,CCOc1ccc(C(=O)COC(=O)C2COc3ccccc3O2)cc1 (stereo unspecified),inactive
20,C[C@H]1COc2cc(N3CCCCC3)ccc2S(=O)(=O)N1,"inconclusive: 35.3 µM [activator, single point]"
21,O=C(CSc1ncnc2c1sc1ccccc12)Nc1ccc(Br)cc1,"inconclusive: 1 µM [activator, full curve, poor fit]"

row,Compound,Potency
1,CC(C)c1ccc(OC(=O)c2cccc(S(=O)(=O)N3CCN(C)CC3)c2)cc1,inactive
2,CCCOc1cccc(C2C(C(=O)c3ccc(C)o3)=C(O)C(=O)N2CCN2CCOCC2)c1 (stereo unspecified),"inconclusive: 0.631 µM [activator, partial curve, poor fit]"
3,Cc1ccc([N+](=O)[O-])c(OCCN2CCC(Cc3ccccc3)CC2)c1,"inconclusive: 6.31 µM [inhibitor, single point]"
4,C/C(=N\NC(=O)c1cc(-c2cccc([N+](=O)[O-])c2)n[nH]1)c1ccccc1O,"inconclusive: 0.447 µM [activator, partial curve, poor fit]"
5,CCC(=O)NC(=S)Nc1ccc(S(=O)(=O)N2CCN(C)CC2)cc1,inactive
6,Cc1cccc(Nc2nnc(SCC(=O)NC3CCCc4ccccc43)s2)c1C (stereo unspecified),"inconclusive: 35.5 µM [inhibitor, single point]"
7,CCCN(CCC)CCCNC(=O)c1cc2c(-c3ccc(OC)c(OC)c3)nn(C)c2s1,"inconclusive: 11.2 µM [inhibitor, partial curve, poor fit]"
8,CCOC(=O)C1CCN(C(=O)COc2cccc(C)c2)CC1,inactive
9,O=C1c2cccc3cccc(c23)C(=O)N1c1nccs1,"inconclusive: 18.3 µM [activator, partial curve, poor fit]"
10,O=C(N/N=C/c1cccc([N+](=O)[O-])c1)c1ccc(CN2CCOCC2)cc1,"inconclusive: 4.61 µM [inhibitor, partial curve, poor fit]"
11,CCCCSC1(SCCCC)N=C(N)C2(C#N)C(c3ccccc3)NC(C)=C(C)C12C#N (stereo unspecified),"inconclusive: 2.82 µM [inhibitor, partial curve, poor fit]"
12,COc1ccc2oc(-c3ccc(NC(=O)c4ccc(N5CCOCC5)c([N+](=O)[O-])c4)cc3)nc2c1,"inconclusive: 1.12 µM [inhibitor, single point]"
13,CCCOC1CCCN(Cc2nc(-c3cnccn3)no2)C1 (stereo unspecified),"inconclusive: 31.6 µM [activator, single point]"
14,O=C1CN(C(=O)c2c(F)cccc2F)C(c2ccc(F)cc2)c2cc(F)ccc2N1 (stereo unspecified),inactive
15,CCOc1ccc(S(=O)(=O)c2c(C(=O)c3ccc(CC)cc3)cnc3ccc(C)cc23)cc1,"inconclusive: 7.94 µM [inhibitor, partial curve, poor fit]"
16,COc1cc([N+](=O)[O-])c(OC)cc1SCc1n[nH]c(=S)n1-c1ccc(F)cc1,"inconclusive: 1.12 µM [inhibitor, partial curve, poor fit]"
17,O=C1C=C(NCCN2CCOCC2)C(=O)c2cnccc21,active: 2.91 µM
18,CCc1ccc(NC(=O)[C@H](Cc2ccccc2)N2Cc3ccccc3C2=O)cc1,"inconclusive: 1 µM [inhibitor, full curve, poor fit]"
19,Cc1ccc(-c2nn(-c3ccccc3)cc2/C=C2\SC(=S)N(CCCCCC(=O)O)C2=O)o1,"inconclusive: 31.6 µM [inhibitor, single point]"
20,CCCOC(=O)c1c(NC(=O)C(C)Sc2nc(-c3ccccc3)cc(C(F)(F)F)n2)sc(C(=O)N(C)C)c1C (stereo unspecified),"inconclusive: 8.91 µM [inhibitor, partial curve, poor fit]"

# Some of the entries above in a different format:
row | Compound | Potency
2 | Nc1ccc(O)c2c(=O)cc(-c3ccccc3Cl)oc12 | inconclusive: 0.517 µM [activator, partial curve]
3 | CCn1cc(CN2CCCC(C(=O)Nc3cccc(-c4cc5ccccc5[nH]4)c3)C2)cn1 (stereo unspecified) | inconclusive: 35.5 µM [inhibitor, single point]
4 | Cc1cc(C)cc(-n2c(C)cc(C(=S)N3CCOCC3)c2C)c1 | inactive
5 | O=C(CCSc1ccc(Cl)cc1)NC1CCCCC1 | inconclusive: 15.8 µM [activator, single point]
6 | CN(C)Cc1ccccc1C(O)(c1ccccc1)c1ccccc1 | inconclusive: 22.4 µM [inhibitor, single point]
7 | CC(=O)c1cnc(Nc2nc(C)c3ccc(C)cc3n2)nc1C | inactive
8 | Clc1ccc(OCc2noc(-c3ccsc3)n2)c(Cl)c1 | inconclusive: 1.78 µM [activator, partial curve, poor fit]
9 | COc1ccccc1NC(=O)CN1CCN(c2ccc(Cl)cc2)CC1 | inconclusive: 1.41 µM [inhibitor, partial curve, poor fit]
10 | Cc1ccc(C)c(NC(=S)NCc2ccc3[nH]c4c(c3c2)CCCC4)c1 | inconclusive: 32.6 µM [inhibitor, single point]
11 | CCNc1nc(NCC)n2c(SCC(=O)c3ccccc3Cl)nnc2n1 | inactive
12 | Cc1cnn(-c2cc(N/N=C/c3ccccc3)ncn2)c1 | inactive
